Data as given in PubChem BioAssay AID504744 (Drosophila RNAi Screening Center, 2011).
In all, the deposit lists about 23,000 reagents; this is an unselected part of those with a known target gene and a result. In the full data, 98 (0.43%) are marked active. 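Only hit calls are given; the phospho-dAkt signals, z-scores and hit direction were not deposited.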 The numbers tell different reagents against one gene apart. Names joined by + are all predicted targets of the reagent.

Assay: 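Identify dsRNAs that increase or decrease phospho-dAkt after insulin treatment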 (primary screen)
Cells: Drosophila Kc167 cells
Reagents: long dsRNA against Drosophila genes, 250 ng dsRNA per well of a 384-well plate
Duration: 3 days of knock-down, then overnight serum-free starvation before stimulation
Treatment: bovine insulin at 387 nM for 10 minutes after 12 h without serum
Measured: 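In-cell antibody fluorescence for phospho-dAkt in each well over DNA-dye signal, with log2 residuals expressed as z-scores adjusted for cell count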
Active means: 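Under insulin, a gene counts as a hit if the average z-score of two replicates lies above 2.5 or below -2.5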

gene	dsRNA no.	Call
CG13667	1	inactive
Mlc1	1	inactive
TbCMF46	1	inactive
stai	1	inactive
pncr003:2L (retired record)	1	inactive
AQP	1	inactive
CG33341	1	inactive
dmrt99B	1	inactive
Dph1	1	inactive
tbrd-2	1	inactive
CR14117	1	inactive
HDAC11	1	inactive
Phlpp	1	inactive
Phlpp	2	inactive
dib	1	inactive
grim	1	inactive
CG8475	1	inactive
CG14632 (retired record)	1	inactive
CG12278	1	inactive
CG13245	1	inactive
CG5068	1	inactive
CG12069	1	inactive
Pop5	1	inactive
CG33235	1	inactive
tor	1	inactive
Adk2	1	inactive
eIF2Bepsilon	1	inactive
spdi	1	inactive
spdi	2	inactive
ath	1	inactive
CG42789	1	inactive
Pkc98E	1	inactive
Acp29AB	1	inactive
CG11975	1	inactive
Cyp4e3	1	inactive
CG31705	1	inactive
f	1	inactive
f	2	active
f	3	inactive
Etl1	1	inactive
CG18787 + CG18789	1	inactive
DEF8	1	inactive
Cpr35B	1	inactive
Cpr35B	2	inactive
CG10654	1	inactive
Ndfip	1	inactive
dati	1	inactive
dati	2	inactive
BthD	1	inactive
alpha-Est6	1	inactive
DIP-eta	1	inactive
Cdc27	1	inactive
Pph13	1	inactive
CSN4	1	inactive
Pu	1	inactive
dl	1	inactive
dl	2	inactive
CG42376 + cin	1	inactive
CG15446	1	inactive
BubR1	1	inactive
CAH5	1	inactive
Rs1	1	inactive
PPO2	1	inactive
tkv + CR14033 + tRNA:Asp-GTC-2-1 + 1 more	1	inactive
jet	1	inactive
hts	1	inactive
CG31544 (retired record)	1	inactive
CG42818 + Ca-Ma2d	1	inactive
wnd	1	inactive
wnd	2	inactive
wnd	3	inactive
Sod2	1	inactive
Tep4	1	inactive
CG12229	1	inactive
Elp4	1	inactive
Obp50d	1	inactive
Rat1	1	inactive
CG34112	1	inactive
inc	1	inactive
inc	2	inactive
CG1513	1	inactive
CG1513	2	inactive
CG1513	3	inactive
nerfin-1	1	inactive
E5	1	inactive
E5	2	inactive
mars	1	inactive
Ir47a	1	inactive
Not11	1	inactive
Hsp27	1	inactive
Eig71Ea	1	inactive
slmo + CG34179	1	inactive
CG14120	1	inactive
xmas	1	inactive
xmas	2	inactive
LRP1	1	inactive
CG4004	1	inactive
CG4004	2	inactive
CRAT	1	inactive
pre-mod(mdg4)-U + mod(mdg4)	1	inactive
CG9240	1	inactive
soti	1	inactive
Jhbp6	1	inactive
CG33285	1	inactive
CNBP	1	inactive
CNBP	2	inactive
CNBP	3	inactive
